Reference: PubChem BioAssay AID1347075 (National Center for Advancing Translational Sciences (NCATS), 2019)
Screen size: about 400,000 compounds; about 5,500 (1.4%) were called active. Inconclusive results, whose numbers are uncertain, are shown with a selection of clear calls. Calls follow the shape of the dose curve; as a rule, active = well fitted cell-killing curve with a large enough effect; inconclusive = small, poorly fitted or top-dose-only effect, or effect the other way; inactive = flat fitted curve, though single readings scatter. Potencies beside an inconclusive call are fits to weak or partial responses and may not hold up. Where a structure was tested more than once in an assay, its records may differ in their call.

test: qHTS assay for MDR1-selective chemotherapeutics: Primary screen using the parental adenocarcinoma cell KB-3-1; details: KB-3-1 viability, CellTiter-Glo ATP luminescence, 72 h; activity change, negative = cytotoxic: at 46.1 µM (top of the series); also: nearly all actives have a fitted effect of over 60% in size
Summary of the method: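 Cytotoxicity measured as CellTiter-Glo luminescence after 72 h at 37 C. Compound titrations were pinned onto drug-naive KB-3-1 parental adenocarcinoma cells grown in DMEM with 10% FBS, and normalized data fitted to concentration-response curves.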
% is scaled to controls: 0 for no effect and ±100 for the full control effect; potency is read from the fitted curve at half-maximal effect.

| Structure (SMILES) | Potency | activity change, negative = cytotoxic |
| --- | --- | --- |
| COc1ccc(C(C(=O)NCC2CCCO2)N(Cc2ccccc2)C(=O)CNC(=O)c2ccco2)cc1OC (stereo not drawn) | inconclusive: 29.1 µM [cytotoxic, single point] |  |
| Cc1sc(NC(=O)c2ccccc2F)c(CN2CCCCC2)c1C | inconclusive: 18.4 µM [rising, single point] |  |
| O=C(NCc1nc2ccccc2[nH]1)C1=C[C@@H](c2ccc(C(F)(F)F)cc2)C[C@@H](OCc2ccc(CO)cc2)O1 | inconclusive: 29.1 µM [cytotoxic, single point] |  |
| NNC(=O)c1ccc(O)cc1O | inconclusive: 9.2 µM [rising, partial curve, poor fit] |  |
| COc1ccc(C2c3[nH]c4ccccc4c3C[C@H]3C(=O)N(C4CCN(Cc5ccccc5)CC4)CC(=O)N23)cc1OC (stereo partly drawn) | inconclusive: 23.1 µM [cytotoxic, single point] |  |
| O=C1[C@H](Cc2ccccc2)NCCCC[C@@H](c2ccc(Cl)cc2)N1Cc1ccc(Cl)cc1 | active: 11.6 µM |  |
| Cc1cc(F)ccc1S(=O)(=O)Nc1ccccc1C(=O)Nc1ccccc1-c1nc2ccccc2[nH]1 | inconclusive: 20.6 µM [cytotoxic, single point] |  |
| COc1cccc(N/C(SC)=C(/C#N)C(N)=O)c1 | inconclusive: 29.1 µM [cytotoxic, single point] |  |
| O=C(NCCC(=O)N1CCCCCCC1)c1ccc(Br)cc1 | inconclusive: 18.4 µM [cytotoxic, single point] |  |
| CCc1ccc(-c2csc(NC(=O)C3CC(=O)N(c4ccc5c(c4)OCCO5)C3)n2)cc1 (stereo not drawn) | inconclusive: 23.1 µM [cytotoxic, single point] |  |
| Cc1cc2c(s1)c1cnn(CC(=O)N3CCOCC3)c(=O)c1n2C | inconclusive: 29.1 µM [rising, single point] |  |
| COC(=O)c1ccc(NS(=O)(=O)c2ccc3[nH]c4c(c3c2)CCCCC4)cc1 | inconclusive: 29.1 µM [cytotoxic, single point] |  |
| C1=CC2=NC34CCCCC3CC3=C(CCCC3)N4C2=CC1=NC1CCCCC1 (stereo not drawn) | inconclusive: 29.1 µM [cytotoxic, single point] |  |
| CCOC(=O)C1CSC(CC(=O)Nc2ccc(OCC)cc2)C(=O)N1 (stereo not drawn) | inconclusive: 3.26 µM [cytotoxic, partial curve, poor fit] |  |
| COC(=O)c1ccc(CSc2nnc(C)s2)cc1 |  | inactive: -11.1% |
| CCCCNC(=O)c1sc2nc(C)cc(COC)c2c1-n1cccc1 |  | inactive: -5.19% |
| c1ccc(-c2nc(NC3CCCC3)c3ccccc3n2)cc1 | inconclusive: 29.1 µM [cytotoxic, single point] |  |

Not a retest: an excerpt of the list.

| Structure (SMILES) | Potency | activity change, negative = cytotoxic |
| --- | --- | --- |
| O=C1[C@H](Cc2ccccc2)NCCCC[C@@H](c2ccc(Cl)cc2)N1Cc1ccc(Cl)cc1 | active: 11.6 µM |  |
| Cc1cc(F)ccc1S(=O)(=O)Nc1ccccc1C(=O)Nc1ccccc1-c1nc2ccccc2[nH]1 | inconclusive: 20.6 µM [cytotoxic, single point] |  |
| COc1cccc(N/C(SC)=C(/C#N)C(N)=O)c1 | inconclusive: 29.1 µM [cytotoxic, single point] |  |

The list goes on.

| Structure (SMILES) | Potency | activity change, negative = cytotoxic |
| --- | --- | --- |
| CC/C(=N\NC(=O)c1cc(C)oc1C)c1ccc(OC(F)F)cc1 | inconclusive: 29.1 µM [cytotoxic, single point] |  |
| O=C(N/N=C/c1cc(Cl)cc([N+](=O)[O-])c1O)c1cccc(S(=O)(=O)N2CCOCC2)c1 | inconclusive: 11.6 µM [cytotoxic, single point] |  |
| Cn1cc[nH]c1=S | inconclusive: 29.1 µM [rising, single point] |  |
| C=CCn1cccc(C(=O)Nc2ccc(OCC)cc2)c1=O | inconclusive: 23.1 µM [cytotoxic, partial curve, poor fit] |  |
| O=C(CCl)N1CCN2C(=O)c3ccccc3C12c1ccc(Cl)cc1 (stereo not drawn) | inconclusive: 29.1 µM [cytotoxic, single point] |  |
| C=CCn1c(=N)n(CC(=O)c2ccc(Br)s2)c2ccccc21 | active: 14.6 µM |  |
| COc1ccc(Nc2nc(N3CCCCC3)nc3ccccc23)c(OC)c1 | inconclusive: 20.6 µM [cytotoxic, single point] |  |
| CC1CC2=C(NC(=S)NC2c2cccc(F)c2)/C(=C/c2cccc(F)c2)C1 (stereo not drawn) | inconclusive: 23.1 µM [cytotoxic, single point] |  |
| CC(C)n1cc(/C=N/Nc2ccc(C(=O)O)cc2)c2ccccc21 |  | inactive: -0.184% |
| FC(F)Sc1ccc(NC(=S)NCC2CCCCC2)cc1 | inconclusive: 18.4 µM [cytotoxic, single point] |  |
| COc1ccc(-c2nc3ccccn3c2NC2CCCCC2)cc1SC1CCCCC1 | inconclusive: 23.1 µM [cytotoxic, single point] |  |
| CC1(C)CC(NC(=O)c2cccc(S(=O)(=O)N(Cc3ccccc3)c3ccccc3)c2)CC(C)(C)N1 | inconclusive: 29.1 µM [cytotoxic, single point] |  |
| Cc1ccc(C)c(S(=O)(=O)NCC(c2ccc(N(C)C)cc2)N2CCOCC2)c1 (stereo not drawn) |  | inactive: 9.15% |
| Cn1c(=O)c2c(ncn2CC(=O)NC[C@H]2O[C@@H](n3cnc4c(N)ncnc43)[C@H](O)[C@@H]2O)n(C)c1=O |  | inactive: -7.96% |
| CCOC(=O)c1c(C=O)c(C)n(Cc2ccc(C)cc2)c1C | inconclusive: 29.1 µM [cytotoxic, single point] |  |
| Cc1ccccc1Cn1c(=O)n(CC2CCC(C(=O)NCCc3ccccc3)CC2)c(=O)c2ccccc21 (stereo not drawn) | inconclusive: 16.4 µM [cytotoxic, partial curve, poor fit] |  |
